Assay results from PubChem BioAssay AID504444 (National Center for Advancing Translational Sciences (NCATS), 2011).
Where “and” joins values, the source holds several entries; their conditions need not be identical. Equal entries are not always repeated. Among all 360,000 compounds or so, about 7,500 (2.1%) were called active. The shares of active, inactive and inconclusive entries below differ from those in the screen. The call rests on the fitted dose curve; in most records, active means well fitted inhibition curve with a large enough effect; inconclusive means small, poorly fitted or top-dose-only effect, or effect the other way; inactive means flat fitted curve, though single readings scatter. Potencies beside an inconclusive call are fits to weak or partial responses and may not hold up.

Assay: Nrf2 qHTS screen for inhibitors; further: nearly all actives have a fitted effect of over 60% in size
Settings: A549 ARE-Fluc reporter, luciferase luminescence, 18-24 h; activity change, negative = inhibition: at 46 µM (top of the series)
Summary of the method: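 A549 ARE_Fluc cells (5000/well, 5% FBS OPTI-MEM) pre-incubated 2 h, then treated with compounds 18-24 h at 37C/5% CO2 in concentration-response. CellTiter-Fluor viability read first; BugLite luciferase luminescence after 15 min at room temperature gives Nrf2 activity.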
On the % scale 0 is the no-effect control and ±100 the full control effect; potency means the concentration at half of the fitted maximal effect.

SMILES | Potency | activity change, negative = inhibition
CCN(Cc1ccccc1)C(c1cccs1)c1nnnn1C1CCCCC1 (configuration not stated) | inconclusive: 29.1 µM [falling, single point] | 
Cc1cc(O)ccc1N/C=C(\C#N)c1nc2ccccc2o1 |  | inactive: 17%
O=C(O)c1ccc(NC(=O)c2cn(-c3ccccc3)nc2-c2ccc(Br)cc2)cc1 | inconclusive: 29.1 µM [activator, single point] | 
Cc1c(-c2nc(N)nc(Nc3ccccc3F)n2)oc2ccccc12 | inconclusive: 2.06 µM [activator, partial curve] | 
O=C(CNc1cccc(C(F)(F)F)c1)N/N=C/c1cccc(Br)c1 | inconclusive: 29.1 µM [falling, partial curve, poor fit] | 
O=C(O)c1nn(CCOc2cccc(Br)c2)c(=O)c2ccccc12 |  | inactive: -3.04%
CC1CCC(NC(=O)c2ccc(CS(=O)(=O)c3c(Cl)cccc3Cl)o2)CC1 (configuration not stated) | inconclusive: 23.1 µM [falling, partial curve, poor fit] | 
Cc1oc(-c2ccccc2Cl)nc1CS(=O)CC(=O)NC1CC1 (configuration not stated) | inconclusive: 29.1 µM [falling, single point] | 
Cc1ccc(Cl)cc1NC1=NC(=S)N(C(C)C)C12CCCCC2 | inconclusive: 29.1 µM [activator, single point] | 
Cc1ccc(OCC(=O)N(C)CC(=O)Nc2ccc(Cl)c(C(F)(F)F)c2)c([N+](=O)[O-])n1 | inconclusive: 18.4 µM [falling, partial curve, poor fit] | 
CCOC(=O)c1ccc2c(c1)nc(C1CCN(S(=O)(=O)c3cccs3)CC1)n2CC | active: 25.9 µM | 
COc1cc(-c2nc(-c3cccc(Cl)c3)c(-c3ccccc3)[nH]2)cc(OC)c1OC | inconclusive: 23.1 µM [falling, single point] | 
O=C(Cc1ccccc1)N1CCN(c2ccc([N+](=O)[O-])cc2)CC1 | active: 25.9 µM | 
CC(C)Cn1c2c(c(=O)[nH]c1=O)C(C(F)(F)F)(C(F)(F)F)N=C(CCC1CCCCC1)N2 | inconclusive: 11.6 µM [falling, partial curve] | 
CC(=O)Nc1ccc(C(=O)Cn2nnc3ccccc3c2=O)cc1 | inconclusive: 2.06 µM [activator, partial curve] | 
O=C(NC1=NCCS1)c1cccc(OC(F)F)c1 | inconclusive: 0.517 µM [activator, full curve, poor fit] | 
COC(=O)c1cc(=O)n(Cc2ccco2)c(=Nc2ccc(F)cc2)s1 | inconclusive: 13 µM [falling, partial curve, poor fit] | 
COc1ccc(CCNC(=O)c2ccc3c(Cl)c4c(nc3c2)CCCC4)c(OC)c1 | inconclusive: 29.1 µM [falling, single point] | 
O=C(Nc1ccc(OCC(=O)N2CCOCC2)cc1)c1cc(F)c(F)cc1Cl | inconclusive: 11.6 µM [activator, single point] | 
COc1ccc(S(=O)(=O)N2CCC(C(=O)Nc3ccc4c(c3)OCCO4)CC2)cc1OC | active: 20.6 µM | 
CNC(=O)c1cccn1-c1ccsc1C(=O)OC | inconclusive: 29.1 µM [activator, single point] | 

Part of the list above in order of SMILES length, ascending:
SMILES | Potency | activity change, negative = inhibition
CNC(=O)c1cccn1-c1ccsc1C(=O)OC | inconclusive: 29.1 µM [activator, single point] | 
CC(=O)Nc1ccc(C(=O)Cn2nnc3ccccc3c2=O)cc1 | inconclusive: 2.06 µM [activator, partial curve] | 
O=C(O)c1ccc(NC(=O)c2cn(-c3ccccc3)nc2-c2ccc(Br)cc2)cc1 | inconclusive: 29.1 µM [activator, single point] | 

(further entries)

SMILES | Potency | activity change, negative = inhibition
COc1ccc(N(CC(C)C)S(=O)(=O)c2nnc(NC(=O)CC(C)C)s2)cc1 | inconclusive: 29.1 µM [falling, single point] | 
CS(=O)(=O)N1CCCc2cc(C(=O)Nc3cccc(C(F)(F)F)c3)ccc21 | active: 9.2 µM | 
CCn1c(=O)c(C(=O)NCc2cccnc2)c(O)c2ccccc21 | inconclusive: 23.1 µM [falling, partial curve, poor fit] | 
O=C(NNC(=O)C12CC3CC(CC(C3)C1)C2)c1ccccc1O | inconclusive: 18.4 µM [falling, single point] | 
CC1(C)C2CCC(C2)C1(C)NC(=O)CNCc1cccs1 (configuration not stated) | inconclusive: 29.1 µM [falling, single point] | 
CCC(CO)Oc1cc(NCc2cccc(Cl)c2)c2ncn(C(C)C)c2c1 (configuration not stated) | inconclusive: 25.9 µM [falling, partial curve, poor fit] | 
CCCCc1ccc(NC(=O)CSc2nc3ccccc3nc2N2CCOCC2)cc1 | inconclusive: 32.6 µM [falling, partial curve, poor fit] | 
Cc1ccc(S(=O)(=O)N2CCOCC2)cc1C(=O)Nc1ccncc1 |  | inactive: -26.5%
O=C(NCC1COc2ccccc2O1)c1cc(S(=O)(=O)N2CCOCC2)c(Cl)cc1Cl (configuration not stated) | active: 23.1 µM | 
O=C(NCCSC1CCCCC1)c1ccccc1 | inconclusive: 29.1 µM [activator, single point] | 
O=C(NNC1=NS(=O)(=O)c2ccccc21)c1ccccc1 | inconclusive: 18.4 µM [falling, single point] | 
O=C(/C=C/c1ccc(F)cc1)NC(=S)Nc1ccccc1O | inconclusive: 29.1 µM [activator, single point] | 
C=CCNC(=S)Nc1ccc(OC(F)F)c(Cl)c1 | inconclusive: 29.1 µM [falling, single point] | 
COc1cccc(CNc2ncnc3ccc(-c4c(C)noc4C)cc23)c1 | active: 5.17 µM and active: 11.6 µM | 
COc1ccc2cc(S(=O)(=O)N3CCCC(C)C3)ccc2c1 (configuration not stated) | inconclusive: 18.4 µM [falling, single point] | 
CCOC(=O)C1(O)CSc2nc3sc(C(=O)O)c(C)c3c(=O)n21 (configuration not stated) |  | inactive: 0.963%
CC(=O)c1ccc(NC(=S)NC(=O)CC(C)C)cc1 | inconclusive: 23.1 µM [activator, single point] | 
CCN1C(c2ccccc2)=C(c2ccccc2)S/C1=C/C=C1\SC(=S)N(C)C1=O | inconclusive: 29.1 µM [falling, single point] | 
CCOC(=O)Nc1ccc2c(CN(C)Cc3ccc(F)cc3)cc(=O)oc2c1 | inconclusive: 29.1 µM [falling, single point] | 
Cc1ccc(Nc2nc(N)nc(CN3CCN(c4ccccc4)CC3)n2)cc1Cl | inconclusive: 16.4 µM [falling, single point] | 
O=[N+]([O-])c1cccnc1N1CCC(c2cc(-c3cccc(C(F)(F)F)c3)n[nH]2)CC1 | active: 20.6 µM | 
